# Source: the supplement of paper PMC10849652
# The chains behind the UniProt entries cited, without tags or fusion partners. Where a name states a change or a piece, a line headed by the entry shows the natural chain unless it says otherwise.
# UniProt P48735: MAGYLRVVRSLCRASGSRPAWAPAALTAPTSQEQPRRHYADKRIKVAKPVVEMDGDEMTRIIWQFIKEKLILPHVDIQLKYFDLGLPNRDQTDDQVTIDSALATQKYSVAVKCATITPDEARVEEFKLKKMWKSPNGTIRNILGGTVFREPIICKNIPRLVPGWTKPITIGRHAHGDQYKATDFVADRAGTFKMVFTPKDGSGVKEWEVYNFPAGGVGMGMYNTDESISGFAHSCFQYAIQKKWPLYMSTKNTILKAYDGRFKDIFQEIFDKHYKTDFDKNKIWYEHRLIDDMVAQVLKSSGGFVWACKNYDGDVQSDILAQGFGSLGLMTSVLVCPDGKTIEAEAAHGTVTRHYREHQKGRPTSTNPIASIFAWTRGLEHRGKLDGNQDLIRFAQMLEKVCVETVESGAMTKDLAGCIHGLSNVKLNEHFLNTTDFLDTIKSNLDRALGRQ
# UniProt Q86U28: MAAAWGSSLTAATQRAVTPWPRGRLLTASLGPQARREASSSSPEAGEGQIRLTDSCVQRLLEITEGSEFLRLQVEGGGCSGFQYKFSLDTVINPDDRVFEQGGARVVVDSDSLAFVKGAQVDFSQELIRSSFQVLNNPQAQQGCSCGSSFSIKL
# UniProt P05556, whole entry, looked up: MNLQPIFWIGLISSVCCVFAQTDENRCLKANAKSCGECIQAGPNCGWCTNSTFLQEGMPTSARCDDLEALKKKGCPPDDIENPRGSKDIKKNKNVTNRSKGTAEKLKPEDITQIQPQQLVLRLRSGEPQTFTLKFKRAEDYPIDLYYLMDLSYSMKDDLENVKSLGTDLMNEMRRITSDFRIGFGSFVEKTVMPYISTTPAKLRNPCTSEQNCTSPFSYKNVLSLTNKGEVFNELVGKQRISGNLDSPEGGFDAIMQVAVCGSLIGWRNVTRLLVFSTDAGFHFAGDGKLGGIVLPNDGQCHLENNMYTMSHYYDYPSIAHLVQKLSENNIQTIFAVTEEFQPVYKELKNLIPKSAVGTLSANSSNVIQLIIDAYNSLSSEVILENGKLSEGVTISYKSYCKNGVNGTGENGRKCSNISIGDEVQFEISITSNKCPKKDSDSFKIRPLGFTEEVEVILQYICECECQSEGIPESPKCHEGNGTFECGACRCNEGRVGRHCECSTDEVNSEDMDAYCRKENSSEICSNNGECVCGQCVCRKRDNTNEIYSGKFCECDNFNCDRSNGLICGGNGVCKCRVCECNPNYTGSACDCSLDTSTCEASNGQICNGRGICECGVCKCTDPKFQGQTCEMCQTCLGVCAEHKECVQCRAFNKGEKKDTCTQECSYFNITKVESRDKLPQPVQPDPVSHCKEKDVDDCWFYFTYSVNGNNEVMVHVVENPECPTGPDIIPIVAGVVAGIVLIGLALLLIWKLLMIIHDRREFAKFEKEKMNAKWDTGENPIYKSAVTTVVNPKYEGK
# UniProt P46940, whole entry, looked up: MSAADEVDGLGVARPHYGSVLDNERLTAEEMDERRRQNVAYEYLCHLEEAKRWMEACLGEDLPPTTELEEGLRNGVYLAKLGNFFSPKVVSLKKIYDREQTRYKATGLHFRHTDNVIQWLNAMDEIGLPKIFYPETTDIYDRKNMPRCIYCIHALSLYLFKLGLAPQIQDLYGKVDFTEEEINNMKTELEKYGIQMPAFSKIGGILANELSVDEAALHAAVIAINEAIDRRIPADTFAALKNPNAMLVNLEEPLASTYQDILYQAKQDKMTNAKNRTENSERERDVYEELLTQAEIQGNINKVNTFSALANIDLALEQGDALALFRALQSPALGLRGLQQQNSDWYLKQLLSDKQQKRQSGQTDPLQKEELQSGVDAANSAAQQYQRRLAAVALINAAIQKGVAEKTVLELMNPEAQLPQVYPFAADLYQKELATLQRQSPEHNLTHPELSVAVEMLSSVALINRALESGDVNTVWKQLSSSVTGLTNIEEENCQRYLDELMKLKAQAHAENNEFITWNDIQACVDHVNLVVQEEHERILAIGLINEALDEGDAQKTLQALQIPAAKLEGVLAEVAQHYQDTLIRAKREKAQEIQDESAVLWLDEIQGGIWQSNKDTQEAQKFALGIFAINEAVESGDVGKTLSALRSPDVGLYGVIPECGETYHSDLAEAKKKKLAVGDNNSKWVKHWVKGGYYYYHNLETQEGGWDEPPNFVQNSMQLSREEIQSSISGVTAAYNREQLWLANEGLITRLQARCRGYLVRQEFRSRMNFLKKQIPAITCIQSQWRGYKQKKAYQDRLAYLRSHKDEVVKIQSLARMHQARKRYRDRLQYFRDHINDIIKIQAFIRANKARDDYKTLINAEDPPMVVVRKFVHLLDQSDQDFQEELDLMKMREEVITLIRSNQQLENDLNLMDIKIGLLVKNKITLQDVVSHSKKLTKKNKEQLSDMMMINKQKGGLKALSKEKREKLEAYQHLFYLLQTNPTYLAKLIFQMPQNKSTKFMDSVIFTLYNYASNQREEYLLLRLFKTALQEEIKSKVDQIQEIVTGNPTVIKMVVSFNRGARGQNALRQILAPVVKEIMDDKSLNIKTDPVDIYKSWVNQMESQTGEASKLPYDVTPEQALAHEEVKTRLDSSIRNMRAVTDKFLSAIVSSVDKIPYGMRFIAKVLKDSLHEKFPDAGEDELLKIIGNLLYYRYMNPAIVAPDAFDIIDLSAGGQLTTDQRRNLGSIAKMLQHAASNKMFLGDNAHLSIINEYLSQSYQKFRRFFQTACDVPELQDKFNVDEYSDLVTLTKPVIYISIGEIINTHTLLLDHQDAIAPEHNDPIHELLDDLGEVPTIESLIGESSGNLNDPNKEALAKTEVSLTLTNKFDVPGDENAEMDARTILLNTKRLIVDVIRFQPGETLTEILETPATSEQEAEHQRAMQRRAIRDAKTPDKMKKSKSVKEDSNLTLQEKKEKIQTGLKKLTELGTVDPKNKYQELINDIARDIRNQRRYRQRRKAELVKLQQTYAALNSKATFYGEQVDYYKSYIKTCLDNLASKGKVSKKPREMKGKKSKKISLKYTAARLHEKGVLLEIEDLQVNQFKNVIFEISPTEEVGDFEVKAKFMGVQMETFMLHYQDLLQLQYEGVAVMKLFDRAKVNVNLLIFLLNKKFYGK
# UniProt Q96AB3: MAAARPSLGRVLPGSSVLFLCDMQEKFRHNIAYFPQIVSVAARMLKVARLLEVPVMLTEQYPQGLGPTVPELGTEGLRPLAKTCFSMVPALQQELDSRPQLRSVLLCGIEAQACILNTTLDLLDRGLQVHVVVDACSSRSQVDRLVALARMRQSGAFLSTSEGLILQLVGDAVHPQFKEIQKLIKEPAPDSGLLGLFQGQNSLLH
# UniProt P20839, whole entry, looked up: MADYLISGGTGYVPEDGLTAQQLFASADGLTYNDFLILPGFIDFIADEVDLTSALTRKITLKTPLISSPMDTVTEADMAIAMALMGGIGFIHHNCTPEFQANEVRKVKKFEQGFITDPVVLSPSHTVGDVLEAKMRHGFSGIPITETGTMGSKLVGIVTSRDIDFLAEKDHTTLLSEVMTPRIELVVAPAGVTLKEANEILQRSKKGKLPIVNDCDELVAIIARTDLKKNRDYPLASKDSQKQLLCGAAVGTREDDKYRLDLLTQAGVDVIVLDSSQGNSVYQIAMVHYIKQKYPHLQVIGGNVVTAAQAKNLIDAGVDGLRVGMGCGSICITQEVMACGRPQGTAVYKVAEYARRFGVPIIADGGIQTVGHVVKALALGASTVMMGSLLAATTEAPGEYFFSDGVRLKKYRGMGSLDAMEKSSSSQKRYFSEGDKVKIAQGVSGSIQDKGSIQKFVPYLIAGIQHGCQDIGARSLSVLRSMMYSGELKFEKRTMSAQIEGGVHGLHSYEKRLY
# UniProt Q96CN7: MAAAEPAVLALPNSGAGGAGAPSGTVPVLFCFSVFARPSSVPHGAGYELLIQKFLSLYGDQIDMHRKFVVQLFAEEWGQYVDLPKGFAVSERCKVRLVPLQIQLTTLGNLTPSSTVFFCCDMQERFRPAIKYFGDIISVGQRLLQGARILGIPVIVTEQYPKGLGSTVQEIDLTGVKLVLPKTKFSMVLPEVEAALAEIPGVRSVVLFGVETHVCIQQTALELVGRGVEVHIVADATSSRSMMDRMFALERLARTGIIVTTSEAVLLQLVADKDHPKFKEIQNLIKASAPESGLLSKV
# UniProt Q16891: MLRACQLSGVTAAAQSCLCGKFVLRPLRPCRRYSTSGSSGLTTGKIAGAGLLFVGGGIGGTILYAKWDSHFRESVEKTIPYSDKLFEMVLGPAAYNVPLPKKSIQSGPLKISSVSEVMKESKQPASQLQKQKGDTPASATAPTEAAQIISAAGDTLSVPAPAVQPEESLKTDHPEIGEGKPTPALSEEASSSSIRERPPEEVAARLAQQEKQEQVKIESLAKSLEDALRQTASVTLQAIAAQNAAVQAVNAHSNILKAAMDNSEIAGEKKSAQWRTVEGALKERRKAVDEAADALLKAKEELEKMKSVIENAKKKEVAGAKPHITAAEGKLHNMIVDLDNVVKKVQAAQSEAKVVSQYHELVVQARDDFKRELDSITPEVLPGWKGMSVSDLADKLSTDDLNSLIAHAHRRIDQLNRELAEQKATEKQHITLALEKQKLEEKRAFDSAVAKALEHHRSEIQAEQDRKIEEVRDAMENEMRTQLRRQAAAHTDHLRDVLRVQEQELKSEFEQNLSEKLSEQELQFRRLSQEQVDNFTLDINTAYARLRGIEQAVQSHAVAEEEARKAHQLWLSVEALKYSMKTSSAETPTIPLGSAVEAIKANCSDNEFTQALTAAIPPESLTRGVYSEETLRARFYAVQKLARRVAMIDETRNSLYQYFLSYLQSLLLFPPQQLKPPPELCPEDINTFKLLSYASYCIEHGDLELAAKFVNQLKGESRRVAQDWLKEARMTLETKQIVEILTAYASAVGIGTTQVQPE
# UniProt Q96LB3: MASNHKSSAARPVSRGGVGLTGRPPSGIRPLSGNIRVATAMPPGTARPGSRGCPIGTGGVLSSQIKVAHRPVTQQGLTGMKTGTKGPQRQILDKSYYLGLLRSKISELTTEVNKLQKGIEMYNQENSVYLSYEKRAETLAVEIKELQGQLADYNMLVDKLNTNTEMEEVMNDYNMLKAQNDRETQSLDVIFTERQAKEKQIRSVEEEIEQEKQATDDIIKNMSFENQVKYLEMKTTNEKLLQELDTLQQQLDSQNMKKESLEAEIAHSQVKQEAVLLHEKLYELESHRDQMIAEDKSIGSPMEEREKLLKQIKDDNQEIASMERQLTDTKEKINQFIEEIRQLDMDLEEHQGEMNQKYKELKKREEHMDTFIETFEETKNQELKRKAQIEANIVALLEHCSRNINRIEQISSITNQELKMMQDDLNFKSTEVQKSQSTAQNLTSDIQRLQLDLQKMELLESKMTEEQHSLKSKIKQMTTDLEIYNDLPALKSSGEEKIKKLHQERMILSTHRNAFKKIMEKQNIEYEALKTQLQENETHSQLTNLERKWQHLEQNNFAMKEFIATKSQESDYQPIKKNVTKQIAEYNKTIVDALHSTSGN
# UniProt Q68E01, whole entry, looked up: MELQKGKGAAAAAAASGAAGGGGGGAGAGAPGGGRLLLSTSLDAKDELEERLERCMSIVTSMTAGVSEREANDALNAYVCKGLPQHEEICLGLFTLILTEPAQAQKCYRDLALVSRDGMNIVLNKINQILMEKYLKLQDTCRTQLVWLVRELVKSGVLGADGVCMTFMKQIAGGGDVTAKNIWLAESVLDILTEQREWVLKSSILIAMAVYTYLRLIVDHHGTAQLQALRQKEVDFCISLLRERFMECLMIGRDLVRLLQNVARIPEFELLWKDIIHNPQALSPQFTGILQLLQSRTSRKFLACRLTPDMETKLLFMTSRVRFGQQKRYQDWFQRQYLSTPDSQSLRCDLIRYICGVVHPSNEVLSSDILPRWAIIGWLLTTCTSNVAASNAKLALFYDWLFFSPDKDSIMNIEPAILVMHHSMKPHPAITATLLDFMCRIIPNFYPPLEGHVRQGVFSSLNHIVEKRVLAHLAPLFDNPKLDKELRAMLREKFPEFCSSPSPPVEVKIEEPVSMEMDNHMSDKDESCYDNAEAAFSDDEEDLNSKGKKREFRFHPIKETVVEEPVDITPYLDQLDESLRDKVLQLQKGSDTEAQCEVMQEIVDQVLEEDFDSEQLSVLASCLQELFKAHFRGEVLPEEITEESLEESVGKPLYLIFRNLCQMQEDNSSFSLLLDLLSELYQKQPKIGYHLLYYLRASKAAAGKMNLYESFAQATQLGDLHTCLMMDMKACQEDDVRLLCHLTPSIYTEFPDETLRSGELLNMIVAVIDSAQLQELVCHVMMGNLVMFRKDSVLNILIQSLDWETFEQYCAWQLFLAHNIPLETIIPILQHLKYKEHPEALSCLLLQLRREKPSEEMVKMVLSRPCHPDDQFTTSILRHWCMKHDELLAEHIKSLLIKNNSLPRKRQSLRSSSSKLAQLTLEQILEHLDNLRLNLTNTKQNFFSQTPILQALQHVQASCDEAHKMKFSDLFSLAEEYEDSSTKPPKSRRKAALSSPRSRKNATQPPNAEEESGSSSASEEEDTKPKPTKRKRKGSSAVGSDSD
# The list shows a part of the results.
# Assays:
# Test in all cases: log2 fold change, soluble protein after heating vs DMSO (PISA); higher = thermal stabilisation; K562 cells, 10 uM, 30 min; active = over 0.2 and 3.5 SD of the protein, either way, in both replicates (recomputed)
# [1] = compound: CC[C@@H]1C(=O)N(C)c2cnc(Nc3ccc(C(=O)NC4CCN(C)CC4)cc3OC)nc2N1C1CCCC1
# Outline: (§1)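 K562 cells (2×10^6 cells/mL) were treated with 10 μM compound for 30 min, and aliquots were heated for 3 min over 48°C-58°C. Pooled aliquots were extracted in PBS with 0.5% NP-40 at 4°C, and the supernatant after 21,000xg for 90 min was measured by TMTpro 16plex LC-MS/MS with channel sums equalised. Reported thermal stability, relative to control samples and from duplicates, is a log2 fold change.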
# volasertib = compound: CC[C@@H]1C(=O)N(C)c2cnc(Nc3ccc(C(=O)N[C@H]4CC[C@H](N5CCN(CC6CC6)CC5)CC4)cc3OC)nc2N1C(C)C [volasertib]
# Outline: as §1
# [2] = compound: CC[C@H](C)N1C=C(C2=C(C=C(C=C21)C3=CN=C(C=C3)N4CCNCC4)C(=O)NCC5=C(C=C(NC5=O)C)C)C
# Outline: as §1
# epoxomicin = compound: CC[C@H](C)[C@@H](C(=O)N[C@@H]([C@@H](C)O)C(=O)N[C@@H](CC(C)C)C(=O)[C@]1(CO1)C)NC(=O)[C@H]([C@@H](C)CC)N(C)C(=O)C [epoxomicin]
# Outline: as §1
# [3] = compound: CCn1c(C(=O)N(C2CC2)C2CC2)cc2c3c(ncn3C)c(Nc3cc(C)n(C)n3)nc21
# Outline: as §1
# [4] = compound: CCn1cc(-c2ccnc3[nH]c(-c4cccc(CN(C)C)c4)cc23)c(-c2ccc(NC(=O)N(C)C)cc2)n1
# Outline: as §1
# [5] = compound: CN(C)CC(=O)Nc1ccc2[nH]c(=O)c3ccccc3c2c1
# Outline: as §1
# rosiglitazone = compound: CN(CCOC1=CC=C(C=C1)C[C@H]2C(=O)NC(=O)S2)C3=CC=CC=N3 (racemic) [rosiglitazone]
# Outline: as §1
# [6] = compound: CN1C2=C(C3=C1C(=O)N(N=C3)CC4=CC(=CC=C4)N)SC(=C2)S(=O)C
# Outline: as §1
# [7] = compound: CN1CCC(CNc2ccc3ncc(-c4cccc(OC(F)(F)F)c4)n3n2)CC1
# Outline: as §1
# saracatinib = compound: CN1CCN(CCOc2cc(OC3CCOCC3)c3c(Nc4c(Cl)ccc5c4OCO5)ncnc3c2)CC1 [saracatinib]
# Outline: as §1
# sotrastaurin = compound: CN1CCN(c2nc(C3=C(c4c[nH]c5ccccc45)C(=O)NC3=O)c3ccccc3n2)CC1 [sotrastaurin]
# Outline: as §1
# alvocidib = compound: CN1CC[C@H](c2c(O)cc(O)c3c(=O)cc(-c4ccccc4Cl)oc23)[C@H](O)C1 [alvocidib]
# Outline: as §1
# Tubastatin A = compound: CN1CCc2c(c3ccccc3n2Cc2ccc(C(=O)NO)cc2)C1 [Tubastatin A]
# Outline: as §1
# [8] = compound: CNC(=O)C1=CC=CC=C1NC2=NC(=NC=C2Cl)NC3=C(C=C(C=C3)N4CCOCC4)OC
# Outline: as §1
# defactinib = compound: CNC(=O)c1ccc(Nc2ncc(C(F)(F)F)c(NCc3nccnc3N(C)S(C)(=O)=O)n2)cc1 [defactinib]
# Outline: as §1
# rucaparib = compound: CNCc1ccc(-c2[nH]c3cc(F)cc4c3c2CCNC4=O)cc1 [rucaparib]
# Outline: as §1
# [9] = compound: CNc1nc(-c2ccc3c(N)n[nH]c3c2)cc(N2C[C@@H](C(=O)NC3CCCCC3)CC[C@H]2C)n1
# Outline: as §1
# encorafenib = compound: COC(=O)N[C@@H](C)CNc1nccc(-c2cn(C(C)C)nc2-c2cc(Cl)cc(NS(C)(=O)=O)c2F)n1 [encorafenib]
# Outline: as §1
# [10] = compound: COC(=O)[C@H](CCSC)NC(=O)C1=C(C=C(C=C1)NC[C@H](CS)N)C2=CC=CC=C2
# Outline: as §1
Target,log2 fold change [1],log2 fold change (volasertib),log2 fold change [2],log2 fold change (epoxomicin),log2 fold change [3],log2 fold change [4],log2 fold change [5],log2 fold change (rosiglitazone),log2 fold change [6],log2 fold change [7],log2 fold change (saracatinib),log2 fold change (sotrastaurin),log2 fold change (alvocidib),log2 fold change (Tubastatin A),log2 fold change [8],log2 fold change (defactinib),log2 fold change (rucaparib),log2 fold change [9],log2 fold change (encorafenib),log2 fold change [10]
IDH2 (UniProt P48735),inactive: 0.016,inactive: 0.029,inactive: -0.005,inactive: 0.051,inactive: -0.001,inactive: -0.09,inactive: -0.014,inactive: -0.02,inactive: -0.059,inactive: -0.11,inactive: 0.02,inactive: 0.01,inactive: -0.06,inactive: -0.017,inactive: -0.018,inactive: -0.012,inactive: -0.037,inactive: -0.009,inactive: -0.005,inactive: 0.014
ISCA2 (UniProt Q86U28),inactive: 0.011,inactive: -0.051,inactive: 0.001,inactive: 0.061,inactive: -0.008,inactive: -0.033,inactive: 0.025,inactive: 0.004,inactive: -0.096,inactive: -0.023,inactive: 0.085,inactive: 0.003,inactive: 0.002,inactive: -0.085,inactive: 0.043,inactive: -0.075,inactive: -0.031,inactive: 0.011,inactive: -0.028,inactive: -0.026
IREB2 (UniProt P48200),inactive: -0.058,inactive: -0.126,inactive: 0.037,inactive: 0.082,inactive: -0.054,inactive: -0.068,inactive: 0.039,inactive: 0.03,inactive: -0.005,inactive: -0.028,inactive: -0.042,inactive: -0.042,inactive: -0.012,inactive: -0.152,inactive: -0.015,inactive: 0.003,inactive: 0.09,inactive: 0.001,inactive: 0.085,inactive: -0.004
ITGB1 (UniProt P05556),inactive: 0.025,inactive: -0.007,inactive: -0.017,inactive: 0.024,inactive: 0.008,inactive: -0.031,inactive: 0,inactive: -0.026,inactive: -0.068,inactive: 0.073,inactive: 0.013,inactive: 0.034,inactive: 0.013,inactive: -0.036,inactive: -0.013,inactive: -0.006,inactive: 0.004,inactive: -0.012,inactive: -0.011,inactive: 0.013
IQGAP1 (UniProt P46940),inactive: -0.05,inactive: -0.154,inactive: 0.08,inactive: 0.041,inactive: -0.049,inactive: -0.092,inactive: 0.029,inactive: 0.065,inactive: -0.043,inactive: -0.136,inactive: -0.025,inactive: -0.019,inactive: -0.045,inactive: 0.042,inactive: -0.056,inactive: -0.043,inactive: 0,inactive: 0.054,inactive: 0.025,inactive: -0.03
IFRD2 isoform 2 (UniProt Q12894),inactive: 0.084,inactive: 0.045,inactive: -0.261,inactive: -0.02,,inactive: 0.029,inactive: -0.319,,inactive: -0.023,inactive: 0.196,inactive: 0.126,inactive: 0.31,,inactive: -0.272,inactive: 0.022,inactive: 0.16,active: -0.549,inactive: -0.095,inactive: -0.031,inactive: 0.026
IRF2BP2 (UniProt Q7Z5L9),inactive: 0.007,inactive: -0.06,inactive: 0.037,inactive: 0.149,inactive: -0.007,inactive: -0.063,inactive: 0.032,inactive: 0.027,inactive: -0.008,inactive: 0.048,inactive: 0.021,inactive: 0.027,inactive: -0.063,inactive: 0.039,inactive: 0.03,inactive: -0.033,inactive: 0.023,inactive: -0.041,inactive: -0.001,inactive: -0.043
IFI35 isoform 2 (UniProt P80217),inactive: 0,inactive: 0.044,inactive: -0.014,inactive: 0.048,inactive: 0.002,inactive: -0.017,inactive: 0.025,inactive: 0.027,inactive: -0.057,inactive: 0.049,inactive: 0.03,inactive: 0.017,inactive: -0.046,inactive: 0.003,inactive: -0.052,inactive: -0.018,inactive: 0.036,inactive: 0.013,inactive: -0.037,inactive: -0.011
ISOC2 (UniProt Q96AB3),inactive: 0,inactive: -0.062,inactive: -0.017,inactive: 0.209,inactive: 0.059,,inactive: -0.04,inactive: 0.022,inactive: 0.19,,inactive: -0.135,inactive: -0.027,inactive: 0.25,inactive: 0.043,inactive: -0.071,inactive: 0.031,inactive: 0.096,inactive: -0.122,inactive: 0.007,inactive: 0.068
IMPDH1 isoform 6 (UniProt P20839),inactive: 0.021,inactive: 0.185,inactive: -0.025,inactive: -0.031,inactive: -0.023,inactive: 0.092,inactive: -0.028,inactive: -0.054,inactive: 0.057,inactive: 0.022,inactive: -0.059,inactive: 0.008,inactive: 0.047,inactive: 0.055,inactive: -0.032,inactive: 0.088,inactive: 0.062,inactive: 0.022,inactive: 0.032,inactive: -0.032
ISOC1 (UniProt Q96CN7),inactive: -0.003,inactive: 0.011,inactive: -0.047,inactive: -0.006,inactive: 0.037,inactive: -0.038,inactive: 0.011,inactive: 0.024,inactive: -0.036,inactive: 0.014,inactive: 0.027,inactive: 0.052,inactive: 0.024,inactive: -0.003,inactive: -0.025,inactive: -0.013,inactive: -0.054,inactive: -0.016,inactive: -0.048,inactive: 0.026
IMMT isoform 2 (UniProt Q16891),inactive: -0.043,inactive: -0.046,inactive: -0.002,inactive: -0.052,,inactive: -0.031,inactive: 0.086,,inactive: 0.067,inactive: 0.249,inactive: -0.069,inactive: -0.036,,inactive: -0.076,inactive: 0.131,inactive: 0.029,inactive: 0.023,inactive: -0.111,inactive: 0.017,inactive: 0.067
IKBKB (UniProt O14920),inactive: 0.272,inactive: -0.225,inactive: 0.088,inactive: -0.051,inactive: -0.119,,inactive: -0.063,inactive: 0.14,inactive: 0.236,,inactive: -0.022,inactive: -0.228,inactive: 0.157,inactive: 0.463,inactive: -0.146,inactive: 0.034,inactive: 0.447,inactive: 0.052,inactive: 0.194,inactive: -0.007
IFT74 (UniProt Q96LB3),inactive: 0.125,inactive: 0.01,inactive: -0.319,inactive: -0.061,,inactive: 0,inactive: -0.051,,inactive: 0.025,inactive: -0.05,inactive: -0.079,inactive: -0.001,,inactive: 0.259,inactive: -0.223,inactive: 0.028,inactive: 0.06,inactive: 0.003,inactive: -0.055,inactive: 0.075
INTS3 (UniProt Q68E01),inactive: -0.014,inactive: -0.226,inactive: 0.076,inactive: 0.125,inactive: -0.051,inactive: -0.027,inactive: 0.025,inactive: 0.058,inactive: -0.04,inactive: -0.049,inactive: 0.004,inactive: -0.112,inactive: -0.098,inactive: 0.034,inactive: -0.006,inactive: -0.061,inactive: 0.014,inactive: -0.037,inactive: -0.061,inactive: 0.028
ITCH (UniProt Q96J02),inactive: -0.059,inactive: -0.272,inactive: 0.047,inactive: 0,inactive: -0.07,inactive: -0.02,inactive: -0.033,inactive: 0.007,inactive: 0.079,inactive: -0.188,inactive: 0.008,inactive: -0.045,inactive: -0.087,inactive: -0.026,inactive: 0.034,inactive: 0,inactive: 0.232,inactive: -0.061,inactive: 0.11,inactive: 0.13
